These are yes or no findings as the source states them, for the method shown. In cells and extracts the contact can be indirect. Binding can be weak; no strength is given.

The chains behind the UniProt entries cited, without tags or fusion partners. Where a name states a change or a piece, a line headed by the entry shows the natural chain unless it says otherwise.
UniProt Q91YE5: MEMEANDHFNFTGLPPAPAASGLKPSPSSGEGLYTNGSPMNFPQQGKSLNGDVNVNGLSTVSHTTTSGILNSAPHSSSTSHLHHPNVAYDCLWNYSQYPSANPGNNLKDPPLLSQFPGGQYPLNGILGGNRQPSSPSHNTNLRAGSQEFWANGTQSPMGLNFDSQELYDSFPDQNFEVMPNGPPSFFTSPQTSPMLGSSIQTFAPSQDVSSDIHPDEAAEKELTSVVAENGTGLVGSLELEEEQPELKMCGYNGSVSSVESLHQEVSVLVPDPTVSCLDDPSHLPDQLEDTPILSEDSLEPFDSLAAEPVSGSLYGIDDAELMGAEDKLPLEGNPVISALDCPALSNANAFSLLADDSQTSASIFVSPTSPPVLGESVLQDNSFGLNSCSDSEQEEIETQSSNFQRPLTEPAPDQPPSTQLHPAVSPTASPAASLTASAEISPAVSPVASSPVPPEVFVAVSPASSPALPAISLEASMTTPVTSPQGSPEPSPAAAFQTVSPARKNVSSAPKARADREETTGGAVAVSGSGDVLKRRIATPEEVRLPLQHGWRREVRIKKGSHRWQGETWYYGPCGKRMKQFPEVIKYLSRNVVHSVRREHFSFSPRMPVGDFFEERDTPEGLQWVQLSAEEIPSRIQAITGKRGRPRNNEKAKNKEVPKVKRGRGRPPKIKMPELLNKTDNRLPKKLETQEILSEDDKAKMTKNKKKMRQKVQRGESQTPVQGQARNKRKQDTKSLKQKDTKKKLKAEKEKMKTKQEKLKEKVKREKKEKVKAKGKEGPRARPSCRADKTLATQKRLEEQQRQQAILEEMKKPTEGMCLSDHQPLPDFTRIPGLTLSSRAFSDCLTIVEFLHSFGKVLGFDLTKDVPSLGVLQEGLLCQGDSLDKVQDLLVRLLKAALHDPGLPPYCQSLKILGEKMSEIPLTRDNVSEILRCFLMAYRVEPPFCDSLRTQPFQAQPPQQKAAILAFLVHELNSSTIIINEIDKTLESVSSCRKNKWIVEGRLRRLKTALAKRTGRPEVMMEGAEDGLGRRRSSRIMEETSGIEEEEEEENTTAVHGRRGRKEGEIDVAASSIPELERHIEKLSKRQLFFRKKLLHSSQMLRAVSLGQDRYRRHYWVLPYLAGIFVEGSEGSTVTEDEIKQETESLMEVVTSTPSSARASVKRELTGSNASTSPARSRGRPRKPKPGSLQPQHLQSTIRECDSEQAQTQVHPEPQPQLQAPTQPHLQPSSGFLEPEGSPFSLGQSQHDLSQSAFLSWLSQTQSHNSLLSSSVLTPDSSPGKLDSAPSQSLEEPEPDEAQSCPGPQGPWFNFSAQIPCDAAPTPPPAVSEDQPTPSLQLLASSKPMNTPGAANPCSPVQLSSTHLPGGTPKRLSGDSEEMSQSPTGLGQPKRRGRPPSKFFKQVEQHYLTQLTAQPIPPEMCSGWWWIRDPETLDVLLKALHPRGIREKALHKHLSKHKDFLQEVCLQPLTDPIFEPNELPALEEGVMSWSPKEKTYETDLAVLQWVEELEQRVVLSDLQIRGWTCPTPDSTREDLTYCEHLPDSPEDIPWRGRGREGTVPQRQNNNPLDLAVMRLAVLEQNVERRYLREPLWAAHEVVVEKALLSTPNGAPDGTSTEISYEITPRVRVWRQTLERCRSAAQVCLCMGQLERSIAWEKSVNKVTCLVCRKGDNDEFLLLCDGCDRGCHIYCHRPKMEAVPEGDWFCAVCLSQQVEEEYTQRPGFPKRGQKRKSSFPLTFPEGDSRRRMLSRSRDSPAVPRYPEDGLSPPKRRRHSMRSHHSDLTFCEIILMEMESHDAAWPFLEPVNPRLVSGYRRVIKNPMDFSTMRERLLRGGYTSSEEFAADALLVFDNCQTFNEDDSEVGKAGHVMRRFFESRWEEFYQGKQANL

This passage reports binding results from paper PMC11065421, “An RNA-dependent and phase-separated active subnuclear compartment safeguards repressive chromatin domains” (Molecular Cell, 2024).

The experiment concerns the target mGFP-BAZ2A_(ΔTAM) (UniProt Q91YE5). Nature of the experiment: co-IP; GFP-Trap magnetic agarose on MNase-digested nuclear extract (200 mM NaCl) of ESC lines, overnight at 4°C; BAZ2A detected with BAZ2A antibodies.

On to “endogenous BAZ2A (from UniProt Q91YE5 1-1889)”, for which the binding result is given as “binds”.
